Measurements as given in paper PMC6639331.
Results are given in words; binding and its absence hold for the method and conditions named. Some binding calls cover weakened binding; strength is not graded here.

Chains of the proteins cited; added tags and fusions are not shown. Lines headed by an entry give the natural chain unless they say otherwise; changes in a name come on top. A line that says so, or that is headed by a name, gives the form on record, which may keep a tag or linker. Residues count along the entry.
UniProt A5YKK6: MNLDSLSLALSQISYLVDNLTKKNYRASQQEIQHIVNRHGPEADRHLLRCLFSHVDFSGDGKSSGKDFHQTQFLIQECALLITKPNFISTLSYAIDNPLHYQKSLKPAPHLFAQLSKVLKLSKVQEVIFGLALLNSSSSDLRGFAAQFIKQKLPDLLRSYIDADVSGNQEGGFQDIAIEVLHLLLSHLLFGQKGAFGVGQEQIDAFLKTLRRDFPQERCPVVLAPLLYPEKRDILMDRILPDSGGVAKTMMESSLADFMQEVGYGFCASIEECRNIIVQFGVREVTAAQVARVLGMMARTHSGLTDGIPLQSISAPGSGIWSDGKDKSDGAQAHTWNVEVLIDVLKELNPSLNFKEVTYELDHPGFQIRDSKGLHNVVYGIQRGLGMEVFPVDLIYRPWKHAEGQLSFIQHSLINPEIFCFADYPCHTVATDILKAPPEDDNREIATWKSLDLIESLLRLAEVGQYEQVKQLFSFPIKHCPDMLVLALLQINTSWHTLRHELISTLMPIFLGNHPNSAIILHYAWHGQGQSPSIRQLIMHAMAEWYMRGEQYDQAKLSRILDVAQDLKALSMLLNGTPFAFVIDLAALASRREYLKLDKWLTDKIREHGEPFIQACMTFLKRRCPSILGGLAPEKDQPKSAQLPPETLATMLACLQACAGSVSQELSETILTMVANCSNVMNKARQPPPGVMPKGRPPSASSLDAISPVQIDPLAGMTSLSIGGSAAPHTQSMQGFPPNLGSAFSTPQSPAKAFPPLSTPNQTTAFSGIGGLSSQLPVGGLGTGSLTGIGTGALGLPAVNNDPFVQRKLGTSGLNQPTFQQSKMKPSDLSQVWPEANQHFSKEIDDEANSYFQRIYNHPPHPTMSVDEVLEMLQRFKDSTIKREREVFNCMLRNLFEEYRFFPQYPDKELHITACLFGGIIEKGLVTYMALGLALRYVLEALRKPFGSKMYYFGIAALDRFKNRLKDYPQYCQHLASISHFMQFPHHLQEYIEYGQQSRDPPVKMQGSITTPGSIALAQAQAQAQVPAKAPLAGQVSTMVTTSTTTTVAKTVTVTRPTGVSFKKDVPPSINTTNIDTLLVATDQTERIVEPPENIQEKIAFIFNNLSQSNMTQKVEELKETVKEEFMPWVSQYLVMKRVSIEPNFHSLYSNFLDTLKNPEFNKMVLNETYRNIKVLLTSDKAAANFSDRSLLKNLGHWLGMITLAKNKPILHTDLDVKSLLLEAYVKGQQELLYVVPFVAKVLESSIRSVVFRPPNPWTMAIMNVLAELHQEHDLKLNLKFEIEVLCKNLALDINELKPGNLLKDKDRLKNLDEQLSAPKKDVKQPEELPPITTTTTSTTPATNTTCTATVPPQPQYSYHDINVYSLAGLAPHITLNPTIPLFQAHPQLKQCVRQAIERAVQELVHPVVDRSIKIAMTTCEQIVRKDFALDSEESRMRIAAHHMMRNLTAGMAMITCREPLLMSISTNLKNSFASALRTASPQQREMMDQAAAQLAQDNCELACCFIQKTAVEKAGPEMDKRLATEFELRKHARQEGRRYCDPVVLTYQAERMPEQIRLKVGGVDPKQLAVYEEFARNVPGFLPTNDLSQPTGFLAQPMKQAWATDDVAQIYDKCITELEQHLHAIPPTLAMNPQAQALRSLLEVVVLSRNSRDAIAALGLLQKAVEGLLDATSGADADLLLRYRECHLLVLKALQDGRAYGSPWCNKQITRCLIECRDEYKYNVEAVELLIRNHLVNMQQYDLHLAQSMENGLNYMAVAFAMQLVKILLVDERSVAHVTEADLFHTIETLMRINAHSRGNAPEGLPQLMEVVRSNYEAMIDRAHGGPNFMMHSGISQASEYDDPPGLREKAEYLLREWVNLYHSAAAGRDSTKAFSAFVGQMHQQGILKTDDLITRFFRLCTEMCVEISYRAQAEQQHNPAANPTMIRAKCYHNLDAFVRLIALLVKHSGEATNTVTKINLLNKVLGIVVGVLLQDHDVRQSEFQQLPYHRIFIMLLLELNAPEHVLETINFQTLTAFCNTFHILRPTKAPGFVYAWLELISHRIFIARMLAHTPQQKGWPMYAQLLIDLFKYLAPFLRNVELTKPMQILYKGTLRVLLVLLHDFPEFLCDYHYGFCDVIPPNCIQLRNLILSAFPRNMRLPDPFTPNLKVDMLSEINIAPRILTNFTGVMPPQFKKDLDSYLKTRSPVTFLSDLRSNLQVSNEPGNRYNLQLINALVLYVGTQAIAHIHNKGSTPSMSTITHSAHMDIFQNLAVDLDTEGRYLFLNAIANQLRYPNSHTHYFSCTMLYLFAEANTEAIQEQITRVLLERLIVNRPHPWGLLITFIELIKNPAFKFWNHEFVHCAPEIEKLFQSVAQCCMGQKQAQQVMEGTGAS
NOT1 (residues 1093-2376), MBP-tagged: residues 1093-2376 of A5YKK6
NOT1 (residues 1093-1607), MBP-tagged: residues 1093-1607 of A5YKK6
UniProt Q92600: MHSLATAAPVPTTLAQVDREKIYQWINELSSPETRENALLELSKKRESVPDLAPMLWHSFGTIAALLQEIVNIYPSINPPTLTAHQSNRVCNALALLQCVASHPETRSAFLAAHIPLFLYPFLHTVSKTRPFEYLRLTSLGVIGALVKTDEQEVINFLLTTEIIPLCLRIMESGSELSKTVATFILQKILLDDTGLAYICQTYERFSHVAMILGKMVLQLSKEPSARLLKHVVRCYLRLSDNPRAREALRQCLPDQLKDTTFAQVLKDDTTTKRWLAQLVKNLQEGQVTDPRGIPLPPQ
UniProt Q9NZN8: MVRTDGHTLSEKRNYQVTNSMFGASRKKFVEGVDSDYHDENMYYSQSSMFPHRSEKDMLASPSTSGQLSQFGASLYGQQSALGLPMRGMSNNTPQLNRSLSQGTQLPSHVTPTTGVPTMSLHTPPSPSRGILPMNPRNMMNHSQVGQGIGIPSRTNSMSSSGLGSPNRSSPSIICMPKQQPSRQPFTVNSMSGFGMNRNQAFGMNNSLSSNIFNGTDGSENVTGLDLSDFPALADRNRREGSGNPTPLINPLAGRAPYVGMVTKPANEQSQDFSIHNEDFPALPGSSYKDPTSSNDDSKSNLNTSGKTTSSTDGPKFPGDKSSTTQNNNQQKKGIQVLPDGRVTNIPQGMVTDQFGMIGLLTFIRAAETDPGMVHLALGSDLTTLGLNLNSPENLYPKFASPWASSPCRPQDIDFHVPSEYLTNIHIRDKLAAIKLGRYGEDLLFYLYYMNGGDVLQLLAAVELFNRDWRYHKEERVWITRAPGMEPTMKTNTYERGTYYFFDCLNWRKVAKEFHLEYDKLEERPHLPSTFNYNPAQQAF
UniProt O75175: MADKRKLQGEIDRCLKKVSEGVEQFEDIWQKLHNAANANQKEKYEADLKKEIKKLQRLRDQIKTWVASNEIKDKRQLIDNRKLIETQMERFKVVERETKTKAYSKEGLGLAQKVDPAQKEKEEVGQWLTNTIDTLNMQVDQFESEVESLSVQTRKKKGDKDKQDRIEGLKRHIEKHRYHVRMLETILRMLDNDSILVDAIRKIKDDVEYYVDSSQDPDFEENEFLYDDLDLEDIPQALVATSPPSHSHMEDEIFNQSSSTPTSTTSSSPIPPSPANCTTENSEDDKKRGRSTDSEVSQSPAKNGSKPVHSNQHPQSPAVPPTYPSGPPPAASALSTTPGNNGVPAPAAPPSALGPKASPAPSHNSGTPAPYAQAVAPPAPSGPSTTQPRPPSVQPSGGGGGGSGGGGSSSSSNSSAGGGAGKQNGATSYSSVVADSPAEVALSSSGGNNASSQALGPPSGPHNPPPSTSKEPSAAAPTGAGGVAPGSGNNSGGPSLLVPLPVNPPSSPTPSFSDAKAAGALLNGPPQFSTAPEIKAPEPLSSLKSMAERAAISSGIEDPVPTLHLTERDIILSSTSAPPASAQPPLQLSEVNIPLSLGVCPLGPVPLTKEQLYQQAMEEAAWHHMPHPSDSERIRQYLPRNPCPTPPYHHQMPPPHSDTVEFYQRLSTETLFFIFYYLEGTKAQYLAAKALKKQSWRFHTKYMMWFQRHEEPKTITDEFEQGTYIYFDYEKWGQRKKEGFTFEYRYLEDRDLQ

Assays:
[1] = target: NOT1 (residues 1093-2376), MBP-tagged (human) (UniProt A5YKK6); test: co-purification (amylose resin); truncated subunits co-expressed in E. coli; isolated from the crude lysate on amylose resin by the MBP tags; 50 mM potassium phosphate pH 7.5, 300 mM NaCl; eluted with 25 mM maltose
[2] = target: NOT1 (residues 1093-1607), MBP-tagged (human) (UniProt A5YKK6); test: as above
[3] = target: NOT1, full length (human) (human) (UniProt A5YKK6); test: co-purification (metal affinity); NOT1, NOT2, NOT3 and CAF40 co-expressed in Sf21 cells; cleared lysate on a nickel-charged HiTrap IMAC column by His10 on NOT1; 50 mM HEPES/NaOH pH 7.5, 500 mM NaCl, 50 mM imidazole; eluted by an imidazole gradient

binding [1] | binding [3] | Substance | other results
binds |  | CAF40 (residues 19-285), His6-tagged, of the CCR4-NOT MINI scaffold (from UniProt Q92600 19-285) (domain or fragment) | 
 |  | CAF40 (residues 19-285), of the NOT1:CAF40 base of CCR4-NOT CORE (from UniProt Q92600 19-285) (domain or fragment) | binding [2]: binds
 | binds | CAF40, full length (human) (from UniProt Q92600 1-299) | 
binds |  | NOT2 (residues 344-540), MBP-tagged (from UniProt Q9NZN8 344-540) (domain or fragment) | 
 | binds | NOT2, full length (human) (from UniProt Q9NZN8 1-540) | 
binds |  | NOT3 (residues 607-753), His6-tagged (from UniProt O75175 607-753) (domain or fragment) | 
 | binds | NOT3, full length (human) (from UniProt O75175 1-753) | 
